Data taken from ChEMBL document CHEMBL3988442, “University of Dundee, Small-Polar-MMV Screening Library” (2021).

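Assay of Toxoplasma gondii numbers, read through their beta-galactosidase reporter with a colour substrate. Tested at 50 µM. The record gives no direction; the compounds picked for IC50 retests had high values, so higher reads as fewer parasites. About 18,000 compounds were tested under these conditions; 0.94% (about 170) showed 50% or more at least once.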

The filed quantity is “Percent Effect” (%). The controls that fix the scale are not given in the record; negative values are as filed. This is an unselected part of the compounds tested.

SMILES	effect
NS(=O)(=O)N1CCN(Cc2ccccc2)CC1	-16.93
Cn1ncc(NCC2CCCO2)c(Cl)c1=O (stereo not shown)	0.6163
COc1cccc([C@@H]2C[C@H]2CN)c1	0.9562
COc1cc(C(N)=O)cc2c1OCCO2	14.76
CN1CCNCC1CCO (stereo not shown)	-5.991
Cc1ccc(C(=O)Nc2cnn(C)c2)cn1	30.41
Cc1cnn(CCNCc2nccn2C)c1	12.89
CN(C)C(=O)NCCNc1nc(-c2ccccc2)ns1	-2.216
CCn1c(CN2CC[C@@H](O)C2)nnc1[C@H]1C[C@@H](N)C1	1.408
Cc1cc(NCc2ncc[nH]2)ccc1F	4.593
NCC1CC(=O)N(C2CCCC2)C1 (stereo not shown)	3.862
O=C1CCC(=O)N1c1cnn(Cc2cccc(Cl)c2)c1	-8.595
O=C(CCC(F)(F)F)N[C@H]1CCCNC1	-2.676
O=C(Cc1ccccc1)NCc1ccncc1	2.374
COc1ccc(C(N)C2CCOCC2)cc1 (stereo not shown)	22.42
Cn1ncc(C(=O)OC2CCOC2)c1-n1cccc1 (stereo not shown)	7.503
CC(C)CN1CCOC(CNC(=O)CN(C)CCO)C1 (stereo not shown)	-11.68
CO[C@H]1CN[C@H](c2nncn2C)C1	-6.44
OCCOCCN1CCC(=Cc2ccccc2)CC1	4.506
COC(=O)CSc1nnc(-c2ccco2)[nH]1	4.253
CC1(C)C(=O)NCCN1C(=O)Cc1ccccc1Cl	-15.23
CS(=O)(=O)NCCNC1(c2cccc(Cl)c2)CC1	-14.29
CCn1cnnc1CCNC(=O)c1cnn(C(C)C)c1	-11.17
O=C(CC1CCNC1)N1CCC(c2ncc[nH]2)CC1 (stereo not shown)	1.806
CCC(NC(=O)c1ccc(C#N)nc1)c1ccnn1C (stereo not shown)	-12.23
CCn1c(CN2CCC(O)CC2)nnc1[C@H]1C[C@H](N)C1	-14.7
COC(=O)c1ccc(NCC(=O)NC(N)=O)cc1	-3.126
COCCN(Cc1cccs1)C(=O)CC1CCNC1 (stereo not shown)	11.69
CCCNCC(=O)Nc1ccccc1OC	0.6304
NCc1ccnc(OCC2CC2)c1	3.263
CCNC(=O)NCCOC(=O)c1cccc2cc[nH]c12	1.57
CCC(Cn1ccnc1)NC(=O)c1cncc(Cl)c1 (stereo not shown)	-13.54
CCN1CCN(C(=O)c2ccc(C)c(C)c2)CC1	-15.07
OCCn1ncc2c1CN(CCCc1ccco1)C2	-2.473
O=C(CN1CCn2ccnc2C1)NCc1ccco1	-4.347
CCC1CCCN(Cc2nc(C)no2)C1 (stereo not shown)	-6.668
C[C@@H]1C[C@@H](N)c2ccccc2O1	-18.64
COC(=O)CNCc1ccc(F)c(F)c1	-1.885
Cc1nn(CC(=O)N[C@@H]2CCNC[C@H]2O)c(C)c1C	13.35
CN(C)CCNC(=O)[C@@H](N)Cc1ccccc1	1.855
CC(CCO)NCc1ccccc1 (stereo not shown)	-1.207
O=C(NCCCNc1cccnc1)C1CCCO1 (stereo not shown)	-1.193
Cc1c(Br)cccc1S(=O)(=O)NCCN	9.841
CCN(CC)c1ccc(CN)cc1F	9.234
Cn1nccc1C(=O)NC1Cc2ccccc2C1	4.859
CSCC(=O)N1CCC(CCC(=O)N2CCCC2)CC1	2.795
Cc1cc(NC(=O)C2CC(=O)Nc3ccccc32)no1 (stereo not shown)	13.16
CN1CCC(N(C)C(=O)c2ccc3c(c2)CCO3)CC1	-0.07526
COc1cccc(CN2CCC3(CC2)OCC(C)O3)c1 (stereo not shown)	1.695
CC(C(=O)N[C@@H](C)CO)c1ccsc1 (stereo partly shown)	-3.81
O=C(Nc1ncc(Br)cn1)c1ccco1	-39.05
COCc1nn(CCC2CCCC2)c(=O)o1	4.781
CC(C)NC(=O)c1nc(-c2ccc(F)cc2)no1	20.61
Clc1ccc2nc(CN3CCOCC3)cn2c1	-21.07
NCCNc1nc2ccccc2s1	19.92
COCCCn1c(SC2CCCCNC2=O)n[nH]c1=O (stereo not shown)	6.105
O=C(Nc1c[nH]nc1C1CCCNC1)c1ccccc1 (stereo not shown)	-30.48
Nc1ccc(C(=O)N2C[C@@H]3CCC[C@H](C2)C(=O)N3)cn1	-3.344
COCCC(NS(N)(=O)=O)c1ccc(Cl)c(Cl)c1 (stereo not shown)	15.52
O=C(NCc1ccco1)NC1CCN(C2CC2)C1=O (stereo not shown)	-3.187
CC(C)n1ccnc1CN1CC2(CCOC2)CCC1=O (stereo not shown)	-7.051
Cc1ccc(S(=O)(=O)CCCS(=O)(=O)N(C)C)c(C)c1	-1.961
Cc1cc(C(=O)N2CC(=O)Nc3ccccc32)no1	-8.494
Cc1noc(C)c1CCC(=O)Nc1cccnc1	8.907
c1ccc2[nH]c(N3CCNCC3)nc2c1	-11.08
N#Cc1cc(Br)ccc1N1CCN(C(=O)CO)CC1	-14.26
COC(=O)c1ccc2c(c1)CCCCC2=O	-4.709
COCCCN1CCC(CNc2nnc(C)o2)C1 (stereo not shown)	-6.253
CCNC(=O)C1CCN(Cc2ccc(F)cc2)CC1	4.154
c1snnc1CN1CCC(OCC2CCOC2)CC1 (stereo not shown)	-0.687
N#Cc1cc(N2CCC[C@@H]2CO)nc2ccccc12	-4.471
NC(CC(=O)N1CCOCC1)c1ccccc1 (stereo not shown)	-9.509
NCCOc1ccc2ccccc2n1	15.09
COc1ccc(C(=O)NC(C)Cn2cccn2)c(O)c1 (stereo not shown)	6.478
N[C@@H]1CCN(C(=O)CCSCc2ccccc2)C[C@H]1O	0.0291
COCCOCc1cccc(NC(=O)NC(C)C)c1	-1.755
CCOC(=O)c1cnc(N2CCNCC2)s1	-18.2
CC(Nc1nc2ccccc2o1)C(=O)N1CCOCC1 (stereo not shown)	19.1
NCCn1cc(Br)ccc1=O	-4.874
CCS(=O)(=O)CCN(C)CCOc1cccc(C#N)c1	-5.434
CCC(O)(CC)CNc1nnnn1-c1ccc(C)cc1	4.628
N#Cc1ccc(N2Cc3cnn(CCO)c3C2)nc1	-1.723
CC1(C)CCN(C(=O)Nc2ccsc2)CCS1(=O)=O	14.26
Cc1cccc(OCCC(=O)NCCS(C)(=O)=O)c1C	-12.6
COc1ncccc1C(=O)NCCc1cncn1C	1.834
Cc1cc(C(=O)NCC(=O)Nc2ccccc2Br)on1	-16.74
CN(C)S(=O)(=O)CCNc1cc([C@H]2C[C@@H](O)C2)ncn1	0.3696
CCOc1cc(NCc2ncc(C)o2)ncn1	-14.68
COc1ccc(-c2cncc(N)c2)cc1CO	96.02
O=C(Cc1ccc(O)c(Cl)c1)NCC1(O)CCNC1 (stereo not shown)	-7.487
Cc1nnc(CNC(=O)CC2CCCCO2)n1C1CC1 (stereo not shown)	-2.425
CCn1c(SCC(N)=O)nnc1-c1cccnc1	-5.033
COc1cccc(Cl)c1CN1CCCNCC1	4.862
CC1NCCCNC1=O (stereo not shown)	-1.427

The first 10 entries again:

Result for NS(=O)(=O)N1CCN(Cc2ccccc2)CC1 was -16.93%.
Result for Cn1ncc(NCC2CCCO2)c(Cl)c1=O (stereo not shown) was 0.6163%.
Result for COc1cccc([C@@H]2C[C@H]2CN)c1 was 0.9562%.
Result for COc1cc(C(N)=O)cc2c1OCCO2 was 14.76%.
Result for CN1CCNCC1CCO (stereo not shown) was -5.991%.
Result for Cc1ccc(C(=O)Nc2cnn(C)c2)cn1 was 30.41%.
Result for Cc1cnn(CCNCc2nccn2C)c1 was 12.89%.
Result for CN(C)C(=O)NCCNc1nc(-c2ccccc2)ns1 was -2.216%.
Result for CCn1c(CN2CC[C@@H](O)C2)nnc1[C@H]1C[C@@H](N)C1 was 1.408%.
Result for Cc1cc(NCc2ncc[nH]2)ccc1F was 4.593%.